Drawing on paper PMC6379471, this text covers binding for two substances.

Protein sequences, listed by entry. Tags and fused reporters are not part of them. Residues count along the entry.
UniProt Q9QUK6, residues 26-835: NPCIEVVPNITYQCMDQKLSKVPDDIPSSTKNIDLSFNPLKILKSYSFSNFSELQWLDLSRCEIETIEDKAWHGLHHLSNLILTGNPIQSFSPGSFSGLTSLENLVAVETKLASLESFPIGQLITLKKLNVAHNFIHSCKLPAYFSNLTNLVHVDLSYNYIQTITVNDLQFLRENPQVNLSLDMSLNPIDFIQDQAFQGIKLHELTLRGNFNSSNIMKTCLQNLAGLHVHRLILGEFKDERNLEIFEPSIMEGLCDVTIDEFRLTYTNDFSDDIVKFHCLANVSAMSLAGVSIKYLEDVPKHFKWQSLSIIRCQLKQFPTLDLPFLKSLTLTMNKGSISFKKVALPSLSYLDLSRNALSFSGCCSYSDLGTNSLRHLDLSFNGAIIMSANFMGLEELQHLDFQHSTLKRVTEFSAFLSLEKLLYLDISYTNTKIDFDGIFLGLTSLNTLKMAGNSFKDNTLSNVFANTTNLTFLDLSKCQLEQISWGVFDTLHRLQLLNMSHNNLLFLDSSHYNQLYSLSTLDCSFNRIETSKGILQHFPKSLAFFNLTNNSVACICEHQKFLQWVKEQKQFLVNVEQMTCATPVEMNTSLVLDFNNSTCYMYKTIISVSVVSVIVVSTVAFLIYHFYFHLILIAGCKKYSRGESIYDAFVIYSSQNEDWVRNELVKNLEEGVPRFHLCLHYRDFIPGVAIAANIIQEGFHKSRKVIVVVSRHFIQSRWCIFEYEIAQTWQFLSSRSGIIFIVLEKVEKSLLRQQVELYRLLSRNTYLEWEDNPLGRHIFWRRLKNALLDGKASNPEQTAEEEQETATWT
UniProt P05555, residues 17-1153: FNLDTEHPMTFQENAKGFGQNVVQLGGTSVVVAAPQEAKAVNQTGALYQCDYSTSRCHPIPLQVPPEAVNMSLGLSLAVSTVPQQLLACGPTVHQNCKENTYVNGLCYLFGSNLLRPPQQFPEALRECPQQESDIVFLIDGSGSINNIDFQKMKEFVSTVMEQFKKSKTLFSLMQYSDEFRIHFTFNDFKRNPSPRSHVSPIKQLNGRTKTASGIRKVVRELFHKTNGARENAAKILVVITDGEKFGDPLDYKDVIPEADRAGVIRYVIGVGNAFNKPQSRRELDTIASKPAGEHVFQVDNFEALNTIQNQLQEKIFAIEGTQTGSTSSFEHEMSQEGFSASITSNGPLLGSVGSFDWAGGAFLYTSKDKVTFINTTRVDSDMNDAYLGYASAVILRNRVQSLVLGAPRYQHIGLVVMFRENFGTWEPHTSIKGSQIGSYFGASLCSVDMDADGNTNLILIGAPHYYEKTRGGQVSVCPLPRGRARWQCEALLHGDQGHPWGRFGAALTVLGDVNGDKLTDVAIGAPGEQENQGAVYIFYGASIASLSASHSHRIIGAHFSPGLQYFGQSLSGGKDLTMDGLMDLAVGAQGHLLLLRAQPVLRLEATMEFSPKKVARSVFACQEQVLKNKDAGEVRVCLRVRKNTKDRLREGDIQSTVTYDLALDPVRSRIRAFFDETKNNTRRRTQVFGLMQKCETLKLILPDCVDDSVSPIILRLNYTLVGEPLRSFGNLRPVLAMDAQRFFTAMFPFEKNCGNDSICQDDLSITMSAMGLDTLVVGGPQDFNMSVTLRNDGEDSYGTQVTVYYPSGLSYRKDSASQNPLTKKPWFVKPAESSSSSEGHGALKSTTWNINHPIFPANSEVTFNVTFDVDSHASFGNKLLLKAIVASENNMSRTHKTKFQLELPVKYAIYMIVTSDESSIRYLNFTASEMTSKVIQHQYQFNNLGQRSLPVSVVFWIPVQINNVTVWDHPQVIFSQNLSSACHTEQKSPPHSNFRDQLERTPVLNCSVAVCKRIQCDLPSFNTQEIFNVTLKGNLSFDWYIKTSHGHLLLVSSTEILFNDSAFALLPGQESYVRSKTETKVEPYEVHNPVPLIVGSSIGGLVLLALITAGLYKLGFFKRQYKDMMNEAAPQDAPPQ

No constants are given. Whether binding was seen depends on the method and setting. In cells and extracts the contact can be indirect. Some results given as binding are weak or reduced against the parent protein; the word gives no strength.

The target in test [1] is TLR4 (mouse (endogenous in BMDMs of C57BL/6 mice)) (UniProt Q9QUK6). The test is described as follows: co-IP; endogenous proteins in lysate (modified RIPA buffer) of mouse BMDMs treated with LA1 (20 μM) for 1 or 2 h; immunoprecipitation with anti-CD11b antibody, anti-TLR4 antibody or negative control IgG, Protein A agarose beads, washed three times with cold PBS; western blot. In general terms: A western blot detects proteins with antibodies after separation by electrophoresis.

Test [2] deals with CD11b (mouse (endogenous in BMDMs of C57BL/6 mice)) (UniProt P05555). Described as above.

Regarding “CD11b (from UniProt P05555 17-1153) (receptor)”, the binding entry in test [1] is on record as “binds”.
In the case of “TLR4 (from UniProt Q9QUK6 26-835) (receptor)”, in test [2], the binding entry is given as “binds”.
